Source: publication PMC11310522
These are yes or no findings as the source states them, for the method shown. Binding seen in cells or lysates may run through a third protein. A result given as binding can be weak or reduced; the word gives no strength. Tags and fused reporters may be left off the sequences shown.

What was measured:
[1] = target: T1, PUX10–GFP (Arabidopsis thaliana) (UniProt Q9M0N1); assay: proximity ligation; in vivo PLA (Duolink) in epidermal cells of the root meristem of stable Arabidopsis lines; α-FLAG or α-RFP with α-CDC48a or α-GFP; < 40 nm distance
T1 sequence: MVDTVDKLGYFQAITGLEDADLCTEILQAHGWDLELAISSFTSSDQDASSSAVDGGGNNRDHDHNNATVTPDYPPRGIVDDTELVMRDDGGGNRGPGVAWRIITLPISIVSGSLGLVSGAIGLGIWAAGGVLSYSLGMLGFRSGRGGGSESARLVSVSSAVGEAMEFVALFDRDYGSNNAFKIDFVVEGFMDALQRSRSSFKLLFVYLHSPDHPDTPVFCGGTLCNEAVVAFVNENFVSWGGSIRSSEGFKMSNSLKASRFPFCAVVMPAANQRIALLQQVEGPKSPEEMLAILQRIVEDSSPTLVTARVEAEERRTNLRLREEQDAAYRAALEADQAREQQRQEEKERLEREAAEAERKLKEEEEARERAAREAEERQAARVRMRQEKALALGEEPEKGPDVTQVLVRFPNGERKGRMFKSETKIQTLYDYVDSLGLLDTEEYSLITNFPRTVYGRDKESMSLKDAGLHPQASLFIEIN

[2] = target: T1, PUX10–GFP (Arabidopsis thaliana); assay: FRET or BRET; sensitized emission FRET (FRET-SE) between PUX10-GFP and MCA-II-a-tagRFP in root epidermal cells; mock or 50 μM MG132

- binding [1]: binds
Substance: HF-MCA-II-a-tagRFP (Arabidopsis thaliana) (enzyme)
- binding [2]: binds
